Consider 1 compound from patent publication US20020062088A1, “System and method for statistical analysis of QT interval as a function of changes in RR interval” (priority 2000, published 2002).

SMILES strings stand for the structures.

This series deals with conscious mongrel dog. Nature of the series: QT-RR interval relationship (ECG) following intravenous infusion in the conscious mongrel dog. The note with it: post-dose curve versus pre-dose curve. The source says: A system for recording electrocardiogram data in accordance with the present invention is broadly shown in FIG. 6 as reference numeral 100. […] The vehicle or test compound may be administered in various ways, including but not limited to orally, intravenously, or subcutaneous.
Heart rate (RR interval) and Lead II ECG data are collected continuously on a beat-to-beat basis at a sampling rate of 1000 Hz to allow for millisecond (ms) resolution. Using the sampled data, the QT interval and preceding RR interval are measured on individual cardiac cycles using commercially available data acquisition and analysis software. The software package used in support of the data presented here was from Gould Inc. (Po-Ne-Mah) subsidiary. This software permits visual validation of the determination of end points used in the calculation of the ECG time intervals. The collection of data is not limited to any particular method. For example, ECG time intervals can be measured using a ECG strip chart recorder. Thus, both manual and electrical data collection is possible with the present invention. […]
Approximately 250 to 300 consecutive cardiac cycles are analyzed for a pre-dose period and during steady-state compound exposure. […]
The upper 95% confidence limit for the difference of the curves is determined for each of the dose-to-pre-dose comparisons. […]

Take `Cc1cccc(CCN2CCC(C(=O)c3ccc(NS(C)(=O)=O)cc3)CC2)n1` [E-4031, Methanesulfonamide, N-[4-[[1-[2(6-methyl-2-pyridinyl)ethyl]-4-piperidinyl]carbonyl]phenyl]]: the “Treatment crosses pre-dose curve” value was “No”.
